Assay results reported in PMC10845952.
Results are given in words; binding and its absence hold for the method and conditions named. In cells and extracts the contact can be indirect. Here binding means that the protein was enriched with, or labelled near, the bait; the list need not be complete. Tags and fused reporters may be left off the sequences shown.

T1: MecA with C-terminal tandem affinity purification (TAP) tag (3x HA + FLAG) (S. mutans) (UniProt Q8DW33)
T1 sequence: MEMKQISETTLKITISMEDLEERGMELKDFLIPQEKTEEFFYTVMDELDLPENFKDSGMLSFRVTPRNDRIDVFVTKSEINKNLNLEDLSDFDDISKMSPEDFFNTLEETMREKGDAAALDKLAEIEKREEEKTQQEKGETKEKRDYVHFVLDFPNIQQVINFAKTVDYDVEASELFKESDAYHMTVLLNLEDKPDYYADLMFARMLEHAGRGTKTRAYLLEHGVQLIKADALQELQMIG

B1: Non-ribosomal peptide synthetase, BacD (protein, UniProt Q8DTJ8 1-1455)
chain: MIWDKVLDHKIDSTQTNFFSEGGNSLIATLVISEIKNTYHVDVSFEDLLKNDSIEKLANFIVNQLWLSKQVINNKTLEKESKSIDTLEEESGPVDSLKASPQQSRMVLNQLFNPSSTAFNIPVIFQLTDQFDKNEFEDCLKEIIKKHQTLNINFSINEDGIFQKVQNQIIDVREIKIAAFDETLSSIISPFEIGKDSLIRLIYADAPSEKYLILDFHHSIIDGYSIVLLHNELFKKLSDEKIYFENVDYFDYCIWMEKYIHSPSYKKQEKFWLKIFENYQLIQHLKQKSNSTFEGDSIEFSFSKDLNKKIRETTKEWGISIYSFLLSMYAQLIHKEHNLYDFIIGTPVSGRTNPRFIKTIGMFINTLPIRVKINDSENYEQYSQRMNSNIRKMLENQDYQFDHLVEQLKKINPQLPRLEFETMFNYQNYSRNWKSLEKFGLNHITVRQNSEKFNFSMTLEEREDEILGCFSFNVEVLTRNEAKWYVEQFINICEEAVVQKDINTVTTLQNIEDTNIYYKIMENLSDFNGKTALVSYKSKVEYAELDQFVDNYVQRFKQEGIRKSDRIAIMMDRSIENVLVILAILKIGACYIPIDSKFPESRKKFILKDANCKYIVNNKQVIKNVEYEAKELDSSELNLAYIIYTSGSTGQPKGVKITQSNLYSFLKAISNRFSQYNYSSILCVTSISFDIFILETLFPIFMGKTCVFASDEEIEDISKLTQLIRIYQVDTIQSTPSRWGIFTEDEQLMTLLKERLKLVLVGGEKLTKNIAEKLLSIGGKLINLYGPTEATVWAFASEVTDPNQIYLGEPLNNTTAYILDENGKESPKGELCLQGSGVSPGYQNRPELTEKSFVKSLKHGNNILYHTGDIVEYTNDQDYLFIGRKDDQVKVNGYRVELGEIDSIISKMSKIKRAKTIYQEETGNLIAFCESKEHCSDIETRKELSKILPKYMLPNSIIFLSEMPLMINGKIDTSKLKNKYLQIAKKSLVLSENVEELSATQQHLIKIFKSVTGYALDRDENFFEVGISSLNILRVIQHLKKTYSVDYSNLVDYPTISSLSSYLDNLSEKKLVRKVNSDKDRTQISKINEREVLNVGRKGILLTGSTGFLGCHLLKELLKQKRPIHLLIRGKNVEDIYKRLAEKFYYYFSEDLAIYSSQLHFYCGDLEKVYCGLEESEFKKLCTQVSDVINSAASVKHFGKYEDFYKSNVISVKNLITFCKESQSALFHISTISLANICDLKANQSFSEEIILTNASTSNVYLQTKYEAEKTIFEAISEGLKANILRVGNIVGSSKTGIFQMNIEENAFYQILRSFFKLKMIPDSNEKSLEFTFVDECALAISEIINNKHLTGVYHIFNQNKISFNELFDFIKTQYPYLKKMTFSKIEETQGLKGTDAEEYFDIIKIHSSTANKNVAKIDNIFTNQLLDKYNFCWSRVDKKTILLLLEYCKEINFI
B2: Response regulator transcription factor, CovR (protein, UniProt Q93MY4 1-235)
chain: MKKILIVDDEKPISDIIKFNLAKEGYDTITAFDGREALSKYEEENPDLIILDLMLPELDGLEVAKEVRKNSHVPIIMLSAKDSEFDKVIGLEIGADDYVTKPFSNRELLARVKAHLRRTENIESAVAEENASGIPEIIIGDLQILPDAFVAKKRGTEVELTHREFELLHHLATHTGQVMTREHLLETVWGYDYFGDVRTVDVTVRRLREKIEDTPSRPEYILTRRGVGYYMKSYD
B3: Response regulator transcription factor, GcrR (protein, UniProt Q9S151 1-230)
chain: MAKDILIIEDEKKLAKFVSLELQHEGYEVEVTYDGRSGLERALEKDFDLILLDLMLPEMDGYEVIRRLQLEKTTYVIIITARDSIMDIVTGLDRGADGYIVKPFAIEELLARVRAIFRRQDIEKAKHSSKNDTTYRDLKLDVHNRAAIRNGETIPLTKREFDLLNALVENINQVMTREELLARVWKYDQEAETNVVDVYIRYLRGKIDVPGKESYIQTVRGMGYIIRENN

Target: T1, MecA with C-terminal tandem affinity purification (TAP) tag (3x HA + FLAG) (S. mutans)
Experiment: affinity purification with mass spectrometry

Binder | binding
B1 | binds
B2 | binds
B3 | binds
